Counter-ions that a name gives are not always drawn. Some of the results follow. Repeats in this data set agree poorly, so a single value says little.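 The human kidney-derived cells carry a stably integrated construct of eight TEAD-binding elements driving luciferase, read by luminescence in a drug-repurposing library screen. A compound counts as a hit when its signal is more than five robust Z scores above the plate mean.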
System: HEK293A TEAD-LUC reporter
Assay: TEAD-luciferase reporter activity (YAP activation), robust Z score vs plate; higher = stronger YAP/TEAD activation
Details: 24 h

Question: What does the source list for CC(C)[C@H](N)C(=O)OC1C[C@@H](n2ccc(N)nc2=O)O[C@H]1CO (some centres not stated) [Valtorcitabine dihydrochloride]?
Answer: TEAD-luciferase reporter activity (compound concentration: 200 nM): inactive: -0.856; TEAD-luciferase reporter activity (compound concentration: 2 uM): inactive: 1.38; TEAD-luciferase reporter activity (compound concentration: 10 uM): active: 7.87

Question: With CC(=O)N[C@@H](CSC(=O)c1ccccc1OC(C)=O)C(=O)O [Salmisteine] as the compound, how does the TEAD-luciferase reporter activity (compound concentration: 200 nM) read?
Answer: inactive: -0.914

Question: And the TEAD-luciferase reporter activity (compound concentration: 2 uM)?
Answer: inactive: -0.936

Question: What about the TEAD-luciferase reporter activity (compound concentration: 10 uM) of the same compound?
Answer: inactive: -1.52

Question: With Cc1cccc(OCC(O)CNC(C)(C)C)c1C (configuration not stated) [xibenolol] as the compound, how does the TEAD-luciferase reporter activity (compound concentration: 200 nM) read?
Answer: inactive: 0.00972

Question: And the TEAD-luciferase reporter activity (compound concentration: 2 uM)?
Answer: inactive: -0.752

Question: And the TEAD-luciferase reporter activity (compound concentration: 10 uM)?
Answer: inactive: 0.744

Question: Which TEAD-luciferase reporter activity (compound concentration: 200 nM) does the source give for CCOc1cc2c(c(F)c1OCC)C(=N)N(CC(=O)c1cc(N3CCOCC3)c(OC)c(C(C)(C)C)c1)C2 [atopaxar] here?
Answer: inactive: 0.124

Question: What about the TEAD-luciferase reporter activity (compound concentration: 2 uM) of the same compound?
Answer: inactive: -0.151

Question: What about the TEAD-luciferase reporter activity (compound concentration: 10 uM) of the same compound?
Answer: inactive: -1.69

Question: With CC(=O)NCC1CN(c2ccc(N3CCCCC3)c(F)c2)C(=O)O1 (configuration not stated) as the compound, how does the TEAD-luciferase reporter activity (compound concentration: 200 nM) read?
Answer: inactive: -1.82

Question: And the TEAD-luciferase reporter activity (compound concentration: 2 uM)?
Answer: inactive: -0.493

Question: And the TEAD-luciferase reporter activity (compound concentration: 10 uM)?
Answer: inactive: -1.09

Question: Which TEAD-luciferase reporter activity (compound concentration: 200 nM) does the source give for Cc1cc(-c2cc(OC(=O)c3ccccc3)ccc2Cl)cc2nnc(Nc3ccc(OCCN4CCCC4)cc3)nc12 here?
Answer: inactive: -0.512

Question: What about the TEAD-luciferase reporter activity (compound concentration: 2 uM) of the same compound?
Answer: inactive: 0.961

Question: And the TEAD-luciferase reporter activity (compound concentration: 10 uM)?
Answer: inactive: 0.667

Question: Which results are given for COc1cc2c(cc1O)[C@@H]1Cc3ccc(O)c(OC)c3CN1CC2 [(-)-Stepholidine]?
Answer: TEAD-luciferase reporter activity (compound concentration: 200 nM): inactive: 1.16; TEAD-luciferase reporter activity (compound concentration: 2 uM): inactive: -1.95; TEAD-luciferase reporter activity (compound concentration: 10 uM): inactive: 1.49

Question: C[C@@H](O)[C@H]1C(=O)N2C(C(=O)O)=C([C@H]3CCCO3)S[C@H]12 [Faropenem sodium] was tested. Which TEAD-luciferase reporter activity (compound concentration: 200 nM) did it give?
Answer: inactive: 1.4

Question: And the TEAD-luciferase reporter activity (compound concentration: 2 uM)?
Answer: inactive: -0.906

Question: And the TEAD-luciferase reporter activity (compound concentration: 10 uM)?
Answer: inactive: 0.599

Question: Which results are given for CC1CCCc2n1c(=O)cc[n+]2C (configuration not stated)?
Answer: TEAD-luciferase reporter activity (compound concentration: 200 nM): inactive: -1.82; TEAD-luciferase reporter activity (compound concentration: 2 uM): inactive: -1.53; TEAD-luciferase reporter activity (compound concentration: 10 uM): inactive: -0.669

Question: Which TEAD-luciferase reporter activity (compound concentration: 200 nM) does the source give for CCCC/N=C(/c1cc(Cl)ccc1O)c1ccccc1Cl [Fengabine] here?
Answer: inactive: -1.4

Question: And the TEAD-luciferase reporter activity (compound concentration: 2 uM)?
Answer: inactive: -1.32

Question: And the TEAD-luciferase reporter activity (compound concentration: 10 uM)?
Answer: inactive: 2.89

Question: For CCOc1ccc(-c2nc(-c3cccc(C(=O)O)n3)cs2)cc1OCC [tetomilast], which TEAD-luciferase reporter activity (compound concentration: 200 nM) is on record?
Answer: inactive: -0.891

Question: What about the TEAD-luciferase reporter activity (compound concentration: 2 uM) of the same compound?
Answer: inactive: -0.0864

Question: And the TEAD-luciferase reporter activity (compound concentration: 10 uM)?
Answer: inactive: 2.47

Question: C=CC(=O)N1C[C@H](Nc2ncnc3[nH]ccc23)CC[C@@H]1C was tested. Which TEAD-luciferase reporter activity (compound concentration: 200 nM) did it give?
Answer: inactive: -0.766

Question: And the TEAD-luciferase reporter activity (compound concentration: 2 uM)?
Answer: inactive: 0.591

Question: And the TEAD-luciferase reporter activity (compound concentration: 10 uM)?
Answer: inactive: 0.0852

Question: For N[C@@H](CC(=O)N1CCc2c(nc(C(F)(F)F)nc2C(F)(F)F)C1)CN1CC(F)(F)CCC1=O [Gemigliptin], which TEAD-luciferase reporter activity (compound concentration: 200 nM) is on record?
Answer: inactive: -0.603

Question: What about the TEAD-luciferase reporter activity (compound concentration: 2 uM) of the same compound?
Answer: inactive: 0.798

Question: And the TEAD-luciferase reporter activity (compound concentration: 10 uM)?
Answer: inactive: 0.675

Question: What does the source list for COc1ccc2c(c1)N(c1ccccc1F)C(=O)[C@@]2(CCC(=O)O)NC(=O)c1cc2ccccc2cn1?
Answer: TEAD-luciferase reporter activity (compound concentration: 200 nM): inactive: -0.716; TEAD-luciferase reporter activity (compound concentration: 2 uM): inactive: -0.0844; TEAD-luciferase reporter activity (compound concentration: 10 uM): inactive: -0.131

Question: With COc1ccccc1N1CCN(CCCNc2ncccc2C(=O)N(C)C)CC1 as the compound, how does the TEAD-luciferase reporter activity (compound concentration: 200 nM) read?
Answer: inactive: -0.655

Question: What about the TEAD-luciferase reporter activity (compound concentration: 2 uM) of the same compound?
Answer: inactive: -2.08

Question: What about the TEAD-luciferase reporter activity (compound concentration: 10 uM) of the same compound?
Answer: inactive: -0.711

Question: Oc1cc(O)c2c(c1)O[C@H](c1ccc(O)c(O)c1)[C@H](O)C2c1c(O)cc(O)c2c1O[C@H](c1ccc(O)c(O)c1)[C@H](O)C2 (single isomer, unassigned; (-)) [[(-)-Epicatechin-(-)-epicatechin]] was tested. Which TEAD-luciferase reporter activity (compound concentration: 200 nM) did it give?
Answer: inactive: -0.486

Question: What about the TEAD-luciferase reporter activity (compound concentration: 2 uM) of the same compound?
Answer: inactive: -1.55

Question: What about the TEAD-luciferase reporter activity (compound concentration: 10 uM) of the same compound?
Answer: inactive: 0.0996

Question: With O=C(O)CC1C=C(c2ccccc2)NO1 (configuration not stated) as the compound, how does the TEAD-luciferase reporter activity (compound concentration: 200 nM) read?
Answer: inactive: -1.04

Question: What about the TEAD-luciferase reporter activity (compound concentration: 2 uM) of the same compound?
Answer: inactive: 0.508

Question: And the TEAD-luciferase reporter activity (compound concentration: 10 uM)?
Answer: inactive: 2.83

Question: Which TEAD-luciferase reporter activity (compound concentration: 200 nM) does the source give for O=S(=O)(O)OC1C(O)C(CO)OC(OC2C(CO)OC(OCc3ccccc3)C(O)C2O)C1O (configuration not stated) here?
Answer: inactive: -1.63

Question: What about the TEAD-luciferase reporter activity (compound concentration: 2 uM) of the same compound?
Answer: inactive: -0.689

Question: What about the TEAD-luciferase reporter activity (compound concentration: 10 uM) of the same compound?
Answer: inactive: 0.192

Question: Which results are given for CC(=O)Oc1cc2c(s1)CCN(C(C(=O)C1CC1)c1ccccc1F)C2 (configuration not stated) [prasugrel hydrochloride]?
Answer: TEAD-luciferase reporter activity (compound concentration: 200 nM): inactive: -0.716; TEAD-luciferase reporter activity (compound concentration: 2 uM): inactive: 2.67; TEAD-luciferase reporter activity (compound concentration: 10 uM): inactive: 1.29

Question: Cc1ccc(S(N)(=O)=O)cc1 [P-Toluenesulfonamide] was tested. Which TEAD-luciferase reporter activity (compound concentration: 200 nM) did it give?
Answer: inactive: -1.69

Question: And the TEAD-luciferase reporter activity (compound concentration: 2 uM)?
Answer: inactive: -0.343

Question: And the TEAD-luciferase reporter activity (compound concentration: 10 uM)?
Answer: inactive: 0.585

Question: What does the source list for COCC1CN(c2ccc(OCc3cccc(C#N)c3)cc2)C(=O)O1 (configuration not stated)?
Answer: TEAD-luciferase reporter activity (compound concentration: 200 nM): inactive: 0.0886; TEAD-luciferase reporter activity (compound concentration: 2 uM): inactive: -0.948; TEAD-luciferase reporter activity (compound concentration: 10 uM): inactive: 0.538

Question: For COc1ccc(-c2nc(-c3ccccc3F)[nH]c2-c2ccc(OC)cc2)cc1, which TEAD-luciferase reporter activity (compound concentration: 200 nM) is on record?
Answer: inactive: -1.16

Question: What about the TEAD-luciferase reporter activity (compound concentration: 2 uM) of the same compound?
Answer: inactive: 1.05

Question: What about the TEAD-luciferase reporter activity (compound concentration: 10 uM) of the same compound?
Answer: inactive: -0.533

Question: For Cc1ccc2c(c1CCC(=O)O)CC[C@H](NS(=O)(=O)c1ccc(Cl)cc1)C2, which TEAD-luciferase reporter activity (compound concentration: 200 nM) is on record?
Answer: inactive: -0.376

Question: What about the TEAD-luciferase reporter activity (compound concentration: 2 uM) of the same compound?
Answer: inactive: -1.79

Question: And the TEAD-luciferase reporter activity (compound concentration: 10 uM)?
Answer: inactive: 1.32

Question: What does the source list for CN(Cc1nc2ccccc2[nH]1)C(=O)c1ccc2c(c1)CN(C)C(=O)[C@H](CC(=O)O)N2?
Answer: TEAD-luciferase reporter activity (compound concentration: 200 nM): inactive: -1.91; TEAD-luciferase reporter activity (compound concentration: 2 uM): inactive: -2.38; TEAD-luciferase reporter activity (compound concentration: 10 uM): inactive: -1.55

Question: Which TEAD-luciferase reporter activity (compound concentration: 200 nM) does the source give for COc1cc(C(=O)O)nc(-c2csc(CCCCCC(C)O)n2)c1OC (configuration not stated) here?
Answer: inactive: -1.46

Question: What about the TEAD-luciferase reporter activity (compound concentration: 2 uM) of the same compound?
Answer: inactive: -0.395

Question: And the TEAD-luciferase reporter activity (compound concentration: 10 uM)?
Answer: inactive: -0.201

Question: With COc1ccc2c(c1)c(CC(=O)O)c(C)n2C(=O)c1ccc(N=[N+]=[N-])cc1 as the compound, how does the TEAD-luciferase reporter activity (compound concentration: 200 nM) read?
Answer: inactive: -1.22

Question: What about the TEAD-luciferase reporter activity (compound concentration: 2 uM) of the same compound?
Answer: inactive: -0.523

Question: What about the TEAD-luciferase reporter activity (compound concentration: 10 uM) of the same compound?
Answer: inactive: -1.42

Question: What does the source list for COc1cccc(-c2c(C)n(Cc3c(F)cccc3F)c(=O)n(C[C@H](N)c3ccccc3)c2=O)c1F?
Answer: TEAD-luciferase reporter activity (compound concentration: 200 nM): inactive: 0.117; TEAD-luciferase reporter activity (compound concentration: 2 uM): inactive: 0.281; TEAD-luciferase reporter activity (compound concentration: 10 uM): inactive: -0.784

Question: How did the TEAD-luciferase reporter activity (compound concentration: 200 nM) turn out when O=C(NC1CCCCNC1=O)c1cccc(C(F)(F)F)c1 (configuration not stated) was run?
Answer: inactive: -1.65

Question: What about the TEAD-luciferase reporter activity (compound concentration: 2 uM) of the same compound?
Answer: inactive: -1.46

Question: And the TEAD-luciferase reporter activity (compound concentration: 10 uM)?
Answer: inactive: -1.47

Question: How did the TEAD-luciferase reporter activity (compound concentration: 200 nM) turn out when O=C1CCCN1C1CCN(Cc2ccc(F)cc2)CC1 was run?
Answer: inactive: -0.326

Question: And the TEAD-luciferase reporter activity (compound concentration: 10 uM)?
Answer: inactive: 2.44

Question: Which results are given for C[C@@H](CN1CC(=O)NC(=O)C1)N1CC(=O)NC(=O)C1 [razoxane]?
Answer: TEAD-luciferase reporter activity (compound concentration: 200 nM): inactive: -1.62; TEAD-luciferase reporter activity (compound concentration: 2 uM): inactive: -0.819; TEAD-luciferase reporter activity (compound concentration: 10 uM): inactive: 1.61

Question: O=C([O-])CCSC[C@@H]1OC2O[C@@H]3[C@@H](O)[C@H](O)C(O[C@@H]4[C@@H](O)[C@H](O)C(O[C@@H]5[C@@H](O)[C@H](O)C(O[C@@H]6[C@@H](O)[C@H](O)C(O[C@@H]7[C@@H](O)[C@H](O)C(O[C@@H]8[C@@H](O)[C@H](O)C(O[C@@H]9[C@@H](O)[C@H](O)C(O[C@@H]1[C@@H](O)[C@@H]2O)O[C@H]9CSCCC(=O)[O-])O[C@H]8CSCCC(=O)O)O[C@H]7CSCCC(=O)O)O[C@H]6CSCCC(=O)O)O[C@H]5CSCCC(=O)O)O[C@H]4CSCCC(=O)O)O[C@H]3CSCCC(=O)O [Sugammadex (sodium)] was tested. Which TEAD-luciferase reporter activity (compound concentration: 200 nM) did it give?
Answer: inactive: -0.738

Question: And the TEAD-luciferase reporter activity (compound concentration: 2 uM)?
Answer: inactive: 0.844

Question: What about the TEAD-luciferase reporter activity (compound concentration: 10 uM) of the same compound?
Answer: inactive: -0.852

— the supplement of paper PMC10735217
